Earlier results in US7691425B2, “Method for manufacturing α-glycosylisoquercitrin, intermediate product and by-product thereof” (San-Ei Gen F.F.I., Inc., priority 2003, dated 2010).
At least one structure is not confirmed: it was looked up by name or label, or the drawing left a doubt.

Tests used:
[1] = minimum use concentration
[2] = ambient temperature

For `O=c1c(O[C@@H]2O[C@H](CO)[C@@H](O)[C@H](O)[C@H]2O)c(-c2ccc(O)c(O)c2)oc2cc(O)cc(O)c12` [isoquercitrin], the “concentration needed to exhibit anti-fading or flavor change-inhibiting action” value [1] is listed as “at least 0.001 w/v %” and the “concentration at which isoquercitrin dissolves in water” value [2] is listed as no more than 0.001 w/v %.
